2 molecules from article PMC3961655, “Methyllysine Reader Plant Homeodomain (PHD) Finger Protein 20-like 1 (PHF20L1) Antagonizes DNA (Cytosine-5) Methyltransferase 1 (DNMT1) Proteasomal Degradation*” (The Journal of Biological Chemistry, 2014) can be followed below.

By UniProt entry, the sequences of proteins in these tests, tags left out.
UniProt P26358: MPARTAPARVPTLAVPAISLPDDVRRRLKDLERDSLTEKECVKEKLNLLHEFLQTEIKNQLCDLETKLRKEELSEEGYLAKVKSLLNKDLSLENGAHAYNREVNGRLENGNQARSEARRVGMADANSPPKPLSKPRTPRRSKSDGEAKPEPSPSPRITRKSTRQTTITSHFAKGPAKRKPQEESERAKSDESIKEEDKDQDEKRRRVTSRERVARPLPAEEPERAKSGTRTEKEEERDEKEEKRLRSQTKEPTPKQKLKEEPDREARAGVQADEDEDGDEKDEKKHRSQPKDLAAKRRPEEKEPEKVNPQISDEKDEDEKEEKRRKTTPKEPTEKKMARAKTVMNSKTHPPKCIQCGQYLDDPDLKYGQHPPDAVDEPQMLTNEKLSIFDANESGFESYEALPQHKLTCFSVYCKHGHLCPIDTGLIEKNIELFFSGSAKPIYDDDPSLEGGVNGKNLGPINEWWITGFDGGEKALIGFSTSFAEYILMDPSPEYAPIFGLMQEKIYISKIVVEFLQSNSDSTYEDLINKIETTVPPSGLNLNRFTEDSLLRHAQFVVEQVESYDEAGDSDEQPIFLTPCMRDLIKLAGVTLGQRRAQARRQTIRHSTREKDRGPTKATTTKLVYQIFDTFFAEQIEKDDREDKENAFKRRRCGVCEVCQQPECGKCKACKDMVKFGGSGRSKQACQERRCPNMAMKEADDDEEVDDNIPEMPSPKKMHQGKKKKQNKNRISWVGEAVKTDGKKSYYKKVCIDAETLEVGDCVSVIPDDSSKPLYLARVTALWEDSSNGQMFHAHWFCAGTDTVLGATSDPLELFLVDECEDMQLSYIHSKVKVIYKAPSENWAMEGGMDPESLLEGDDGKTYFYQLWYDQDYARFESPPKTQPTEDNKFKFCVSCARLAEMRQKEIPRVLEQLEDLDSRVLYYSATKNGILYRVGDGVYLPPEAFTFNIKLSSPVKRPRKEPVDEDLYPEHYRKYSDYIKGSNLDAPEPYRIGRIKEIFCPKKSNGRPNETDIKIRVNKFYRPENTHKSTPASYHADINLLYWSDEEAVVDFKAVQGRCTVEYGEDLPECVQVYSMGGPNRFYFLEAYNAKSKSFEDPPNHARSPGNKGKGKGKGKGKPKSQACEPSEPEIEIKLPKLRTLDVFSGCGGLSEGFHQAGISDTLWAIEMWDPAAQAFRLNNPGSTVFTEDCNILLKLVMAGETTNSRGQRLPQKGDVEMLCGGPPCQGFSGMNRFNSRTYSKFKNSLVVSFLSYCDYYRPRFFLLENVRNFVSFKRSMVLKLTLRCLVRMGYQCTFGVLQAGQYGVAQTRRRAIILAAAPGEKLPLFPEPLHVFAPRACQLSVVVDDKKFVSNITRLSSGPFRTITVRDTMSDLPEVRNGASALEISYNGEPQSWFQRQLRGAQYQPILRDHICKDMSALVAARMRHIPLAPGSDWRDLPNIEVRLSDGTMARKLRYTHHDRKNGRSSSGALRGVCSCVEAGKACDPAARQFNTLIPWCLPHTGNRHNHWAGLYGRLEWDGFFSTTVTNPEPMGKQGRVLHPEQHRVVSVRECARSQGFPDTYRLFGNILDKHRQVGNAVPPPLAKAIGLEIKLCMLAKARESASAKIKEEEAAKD

Results are given in words; binding and its absence hold for the method and conditions named. For some of these results: In cells and extracts the contact can be indirect. Some results given as binding are weak or reduced against the parent protein; the word gives no strength. For some of these results: Sequences can lack the tags named with a protein.

Assay [1] has as its target endogenous DNMT1 (human (endogenous in HeLa, HEK293, HCT116)) (UniProt P26358). Put plainly: co-IP; co-immunoprecipitations of endogenous DNMT1 and PHF20L1a in HEK293 and HCT116 cells.
For assay [2] the target is unchanged. Put plainly: co-IP; HeLa nuclear extracts (400 ug to 1 mg) precipitated with 5 ug anti-DNMT1 or anti-PHF20L1, rabbit IgG as control; also after 80 uM UNC1215 or ethanol for 3 days (lower levels of PHF20L1 with UNC1215).
Assay [3] deals with endogenous DNMT1K142me1 (DNMT1 monomethylated at lysine 142) (human (endogenous in Jurkat)) (UniProt P26358). Briefly: SEC; gel filtration of Jurkat cell nuclear extract; fractions blotted for DNMT1, DNMT1K142me1 and PHF20L1a.
For assay [4], the target named is T1, biotin-tagged DNMT1K142me1 peptide (amino acids 132-150 of DNMT1 with monomethylated Lys-142).
T1 sequence (peptide, monomethyl-lysine K(me1) at Lys-142; biotin, printed before the first residue): LSKPRTPRRSKSDGEAKPE
Briefly: pull-down; 10 uM biotin peptide on agarose-streptavidin beads; 500 ng MBP-PHF20L1a with 0-200 uM UNC1215 for 1 h at 4 C; 10% glycerol, 0.1 mM DTT, 1 mM EDTA, 20 mM HEPES, 100 mM KCl; blot with anti-MBP-HRP; both purified.

B1: endogenous PHF20L1a (natural protein, UniProt A8MW92 1-1017, looked up)
chain: MSKKPPNRPGITFEIGARLEALDYLQKWYPSRIEKIDYEEGKMLVHFERWSHRYDEWIYWDSNRLRPLERPALRKEGLKDEEDFFDFKAGEEVLARWTDCRYYPAKIEAINKEGTFTVQFYDGVIRCLKRMHIKAMPEDAKGQVKSQHPLSWCCPIDPAGSCNQSMGSEDWIALVKAAAAAAAKNKTGSKPRTSANSNKDKDKDERKWFKVPSKKEETSTCIATPDVEKKEDLPTSSETFGLHVENVPKMVFPQPESTLSNKRKNNQGNSFQAKRARLNKITGLLASKAVGVDGAEKKEDYNETAPMLEQAISPKPQSQKKNEADISSSANTQKPALLSSTLSSGKARSKKCKHESGDSSGCIKPPKSPLSPELIQVEDLTLVSQLSSSVINKTSPPQPVNPPRPFKHSERRRRSQRLATLPMPDDSVEKVSSPSPATDGKVFSISSQNQQESSVPEVPDVAHLPLEKLGPCLPLDLSRGSEVTAPVASDSSYRNECPRAEKEDTQMLPNPSSKAIADGRGAPAAAGISKTEKKVKLEDKSSTAFGKRKEKDKERREKRDKDHYRPKQKKKKKKKKKSKQHDYSDYEDSSLEFLERCSSPLTRSSGSSLASRSMFTEKTTTYQYPRAILSVDLSGENLSDVDFLDDSSTESLLLSGDEYNQDFDSTNFEESQDEDDALNEIVRCICEMDEENGFMIQCEECLCWQHSVCMGLLEESIPEQYICYICRDPPGQRWSAKYRYDKEWLNNGRMCGLSFFKENYSHLNAKKIVSTHHLLADVYGVTEVLHGLQLKIGILKNKHHPDLHLWACSGKRKDQDQIIAGVEKKIAQDTVNREEKKYVQNHKEPPRLPLKMEGTYITSEHSYQKPQSFGQDCKSLADPGSSDDDDVSSLEEEQEFHMRSKNSLQYSAKEHGMPEKNPAEGNTVFVYNDKKGTEDPGDSHLQWQLNLLTHIENVQNEVTSRMDLIEKEVDVLESWLDFTGELEPPDPLARLPQLKRHIKQLLIDMGKVQQIATLCSV
As to B1, the binding result in assay [1], in assay [2] and in assay [3] was “binds” each time.

B2: MBP-PHF20L1 full-length fusion protein (isoform a) (protein, UniProt A8MW92 1-1017)
chain: B1 chain
For B2, the binding result in assay [4] was “binds”.
